These are yes or no findings as the source states them, for the method shown. Binding seen in cells or lysates may run through a third protein. Here binding means that the protein was enriched with, or labelled near, the bait; the list need not be complete. For some assays here: No binding means not detected with the bait. Tags and fused reporters may be left off the sequences shown.

Chains of the proteins cited; added tags and fusions are not shown.
UniProt Q99873: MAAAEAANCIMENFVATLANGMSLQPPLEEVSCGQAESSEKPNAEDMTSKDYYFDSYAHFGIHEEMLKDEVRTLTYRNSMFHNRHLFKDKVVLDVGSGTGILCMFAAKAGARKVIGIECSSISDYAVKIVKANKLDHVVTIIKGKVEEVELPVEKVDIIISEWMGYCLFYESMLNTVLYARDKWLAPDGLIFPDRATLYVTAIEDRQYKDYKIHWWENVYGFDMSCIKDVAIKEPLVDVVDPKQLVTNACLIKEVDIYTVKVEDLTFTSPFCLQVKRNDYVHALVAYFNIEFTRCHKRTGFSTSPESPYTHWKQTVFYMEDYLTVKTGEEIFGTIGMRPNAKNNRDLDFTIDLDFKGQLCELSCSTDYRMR

The target of experiment [1] is T1, FLAG-Aven (full-length human Aven) (human) (UniProt Q9NQS1).
T1 sequence (chain, methylarginines in the N-terminus (recognised by ASYM25b)): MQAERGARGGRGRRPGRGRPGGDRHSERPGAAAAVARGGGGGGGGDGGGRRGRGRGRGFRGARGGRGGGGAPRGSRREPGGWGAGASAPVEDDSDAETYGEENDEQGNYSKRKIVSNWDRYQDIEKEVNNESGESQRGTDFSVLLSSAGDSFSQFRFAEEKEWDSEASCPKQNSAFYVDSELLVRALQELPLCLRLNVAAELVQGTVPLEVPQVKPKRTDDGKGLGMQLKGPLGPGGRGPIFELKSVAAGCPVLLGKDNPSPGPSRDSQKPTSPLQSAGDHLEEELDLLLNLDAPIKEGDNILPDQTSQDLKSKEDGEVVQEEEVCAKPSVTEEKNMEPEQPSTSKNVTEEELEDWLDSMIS
As to the kind of experiment: affinity purification with mass spectrometry; SILAC: U2OS cells transfected with pcDNA3.1 (light), FLAG-Aven (medium) or FLAG-AvenΔRGG (heavy); anti-FLAG agarose immunoprecipitates mixed before LC-MS/MS.

The target of experiment [2] is T2, FLAG-AvenΔRGG (human Aven lacking amino acids 1-73) (human) (UniProt Q9NQS1).
T2 sequence: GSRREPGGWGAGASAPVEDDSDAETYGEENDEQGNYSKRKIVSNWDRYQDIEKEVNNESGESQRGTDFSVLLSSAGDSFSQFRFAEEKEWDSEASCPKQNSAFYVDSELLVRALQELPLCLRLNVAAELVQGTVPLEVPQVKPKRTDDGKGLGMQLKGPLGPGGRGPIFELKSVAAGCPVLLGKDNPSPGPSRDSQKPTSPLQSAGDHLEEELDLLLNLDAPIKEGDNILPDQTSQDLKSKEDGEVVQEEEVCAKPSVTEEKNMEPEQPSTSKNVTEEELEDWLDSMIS
Described as above.

Regarding “PRMT1 (protein arginine methyltransferase 1), endogenous (from UniProt Q99873 1-371) (enzyme)”, the binding entry is reported as “binds” in experiment [1] and “no binding” in experiment [2].

These data come from PMC4561382, “Aven recognition of RNA G-quadruplexes regulates translation of the mixed lineage leukemia protooncogenes”.
